Source: patent US20180280423A1
Results are given in words; binding and its absence hold for the method and conditions named. For part of these data: In cells and extracts the contact can be indirect. Some entries that bind do so weakly or less than the wild type.

Tests used:
[1] = target: phosphorylated EGFR (human) (UniProt P00533); experiment: proximity ligation assay in OECM1-Ctx^R cells, phosphorylated EGFR
[2] = target: EGFR extracellular domain (EGFR-ECD) (human) (UniProt P00533); experiment: interaction with EGFR domain constructs (method not named)
[3] = target: EGFR intracellular domain (EGFR-ICD) (human) (UniProt P00533); experiment: as above

Measured: binding

B1: Lymphotoxin-β (LTβ) (ligand)
chain: MGALGLEGRGGRLQGRGSLLLAVAGATSLVTLLLAVPITVLAVLALVPQDQGGLVTETADPGAQAQQGLGFQKLPEEEPETDLSPGLPAAHLIGAPLKGQGLGWETTKEQAFLTSGTQFSDAEGLALPQDGLYYLYCLVGYRGRAPPGGGDPQGRSVTLRSSLYRAGGAYGPGTPELLLEGAETVTPVLDPARRQGYGPLWYTSVGFGGLVQLRRGERVYVNISHPDMVDFARGKTFFGAVMVG
binds: all assays above
